Consider one substance from paper PMC11110392, “A first-in-class inhibitor of HSP110 to potentiate XPO1-targeted therapy in primary mediastinal B-cell lymphoma and classical Hodgkin lymphoma” (Journal of Experimental & Clinical Cancer Research : CR, 2024).

Sequences of proteins named here, by UniProt entry; tags and fusion partners are left off. A change or cut given only in a name is not applied to a line headed by its entry.
UniProt O14980: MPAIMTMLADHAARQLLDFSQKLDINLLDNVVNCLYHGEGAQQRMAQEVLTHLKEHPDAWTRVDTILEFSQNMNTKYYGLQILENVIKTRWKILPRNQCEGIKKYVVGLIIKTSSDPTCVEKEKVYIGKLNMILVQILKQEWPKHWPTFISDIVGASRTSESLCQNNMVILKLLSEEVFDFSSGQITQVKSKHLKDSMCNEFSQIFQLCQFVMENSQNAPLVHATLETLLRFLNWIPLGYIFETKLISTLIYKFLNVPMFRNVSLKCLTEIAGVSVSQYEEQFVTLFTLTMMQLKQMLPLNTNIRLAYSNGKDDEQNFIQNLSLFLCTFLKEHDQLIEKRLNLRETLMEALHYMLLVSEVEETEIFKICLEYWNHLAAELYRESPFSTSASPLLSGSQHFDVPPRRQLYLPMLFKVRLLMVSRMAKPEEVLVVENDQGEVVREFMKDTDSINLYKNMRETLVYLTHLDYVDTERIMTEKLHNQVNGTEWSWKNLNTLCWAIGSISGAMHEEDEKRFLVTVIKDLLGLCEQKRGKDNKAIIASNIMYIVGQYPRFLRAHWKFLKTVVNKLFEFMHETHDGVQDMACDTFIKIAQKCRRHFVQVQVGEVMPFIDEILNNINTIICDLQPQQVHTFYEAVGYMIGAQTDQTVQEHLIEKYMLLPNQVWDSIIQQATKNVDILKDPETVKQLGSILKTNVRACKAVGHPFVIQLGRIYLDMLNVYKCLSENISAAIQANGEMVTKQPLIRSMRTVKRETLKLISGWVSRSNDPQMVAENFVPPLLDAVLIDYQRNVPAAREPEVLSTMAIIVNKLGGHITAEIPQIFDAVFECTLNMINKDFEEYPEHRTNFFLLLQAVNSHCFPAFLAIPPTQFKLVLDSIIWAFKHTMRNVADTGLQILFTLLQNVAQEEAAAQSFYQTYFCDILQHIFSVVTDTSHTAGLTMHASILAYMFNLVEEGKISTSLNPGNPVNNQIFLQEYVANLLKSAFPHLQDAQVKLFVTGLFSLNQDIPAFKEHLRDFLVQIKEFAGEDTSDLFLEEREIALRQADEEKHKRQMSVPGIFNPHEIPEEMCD
UniProt Q92598: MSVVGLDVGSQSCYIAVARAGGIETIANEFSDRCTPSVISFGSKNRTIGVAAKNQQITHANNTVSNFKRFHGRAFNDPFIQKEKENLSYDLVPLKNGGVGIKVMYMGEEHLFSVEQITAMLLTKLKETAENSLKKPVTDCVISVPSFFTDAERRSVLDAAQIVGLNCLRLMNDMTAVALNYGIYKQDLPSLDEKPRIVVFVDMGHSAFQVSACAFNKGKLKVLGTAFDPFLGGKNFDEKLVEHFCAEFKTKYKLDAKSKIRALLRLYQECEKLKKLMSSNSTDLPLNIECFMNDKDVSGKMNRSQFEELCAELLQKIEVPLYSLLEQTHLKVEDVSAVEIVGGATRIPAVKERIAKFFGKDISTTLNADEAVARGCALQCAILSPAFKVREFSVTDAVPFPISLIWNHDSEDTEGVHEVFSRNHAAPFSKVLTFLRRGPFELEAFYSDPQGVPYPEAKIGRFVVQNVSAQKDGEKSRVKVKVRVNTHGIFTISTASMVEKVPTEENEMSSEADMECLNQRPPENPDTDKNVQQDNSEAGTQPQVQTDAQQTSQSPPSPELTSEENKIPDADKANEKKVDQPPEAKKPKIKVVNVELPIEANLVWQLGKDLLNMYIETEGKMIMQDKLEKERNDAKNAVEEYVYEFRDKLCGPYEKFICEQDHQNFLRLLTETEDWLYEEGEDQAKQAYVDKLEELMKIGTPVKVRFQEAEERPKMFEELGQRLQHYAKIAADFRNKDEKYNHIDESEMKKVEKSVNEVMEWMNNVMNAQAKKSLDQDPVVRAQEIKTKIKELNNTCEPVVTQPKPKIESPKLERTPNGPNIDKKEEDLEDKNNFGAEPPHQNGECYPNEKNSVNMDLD

The target in one experiment is XPO1wt-mCherry (UniProt O14980). As to the kind of experiment: co-IP; IP of mCherry from HEK293S6 cells transfected with HSP110-GFP and XPO1 WT-mCherry or XPO1 E571K-mCherry; blots with anti-GFP and anti-mCherry; unrelated antibody as IP control.
In another experiment the target is XPO1 E571K-mCherry (UniProt O14980). The description is as above.

Results are given in words; binding and its absence hold for the method and conditions named. Binding seen in cells or lysates may run through a third protein. Some entries that bind do so weakly or less than the wild type.

Regarding HSP110-GFP (from UniProt Q92598 1-858), the binding entry with XPO1wt-mCherry and with XPO1 E571K-mCherry was “binds” in each case.
